# Results as given in PubChem BioAssay AID819 (Columbia University Molecular Screening Center, 2007).
# The whole screen tested about 94,000 compounds, of which about 280 (0.3%) were called active. This list was built around the results that the source calls inconclusive (neither active nor inactive); the mix of calls is not that of the screen.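 The calls were made as follows: active = activation above 40%, about the mean plus 3 SD, also judged a hit on visual image review; inconclusive = activation above 40% but not a hit on visual review; inactive = activation not above 40% and no visual hit.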
# Experiment: enhancers of NFkB p65 translocation in HUVEC – imaging, IL-1B stimulus, high-content imaging, primary screen (AID 819);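 also: percent activation is computed from the nuclear over cytoplasmic p65 intensity ratio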
# Settings: HUVEC IL-1B NFkB p65 nuclear translocation imaging; at 2 µM; stronger effect = higher value
row,Compound,activation
1,CCOc1ccc(N(CC(=O)NC2CCCC2)C(=O)CSc2nnc(COc3ccccc3)o2)cc1,inactive: -9.13%
2,COc1ccc(Nc2nc(C)cc(C)c2C#N)cc1OC,inactive: 6.18%
3,Cc1cc(C)n2nc(S(=O)(=O)NC3CCCCC3)nc2n1,inconclusive: 41%
4,CCOC(=O)CC(=O)CSc1nc(C)cc(C)c1C#N,inactive: 8.92%
5,Cc1ccc(C2N(c3nccs3)C(=O)C3CCCN32)cc1 (configuration not stated),inconclusive: 55.3%
6,COc1cccc(CNC(=O)C2CCN(Cc3cnn(-c4ccccc4)c3-n3cccc3)CC2)c1,active: 63%
7,Cc1cccc(NC(=O)C2CC(=O)n3cnnc3S2)c1 (configuration not stated),inactive: 6.47%
8,O=C(CSc1nnc(CNc2cccc(C(F)(F)F)c2)n1Cc1ccco1)NCc1ccco1,active: 68.8%
9,COC(=O)c1cc(NC(=O)Nc2cccc(Cl)c2)ccc1Cl,inconclusive: 41.9%
10,CC(=O)Nc1ccc2nc(C3CCCCC3)[nH]c2c1,inconclusive: 45%
11,CC(=O)Nc1ccc2c(c1)C(=O)N(C1CCCCC1)C2=O,inconclusive: 49%
12,CCOc1cc(N2CCOCC2)c(OCC)cc1NC1=NCCCCC1,inactive: 0.31%
13,CCOC(=O)C1CCN(C(=O)C2CCCCC2)CC1,inconclusive: 40.1%
14,Cc1ccn2cc(C(=O)NC3CCN(Cc4ccccc4)CC3)nc2c1,inconclusive: 42.7%
15,CCOC(=O)c1c(NC(=O)COC)sc(C)c1C,active: 49.3%
16,O=C(O)c1ccc(NC(CSCc2cccc(F)c2)C(=O)O)c([N+](=O)[O-])c1 (configuration not stated),inactive: -5.04%
17,O=C(NC1CC1)C1CC(=O)N(C2CCCCC2)C1 (configuration not stated),active: 121%
18,CCOc1ccccc1-c1nnc(SCC(=O)NC2CC3CCC2C3)n1CC (configuration not stated),inconclusive: 43.1%
19,COC(=O)c1nc2nc(C)cc(C(F)(F)F)n2n1,inconclusive: 41.6%
20,CCOC(=O)c1cnc(SCC(=O)Nc2cc(OC)cc(OC)c2)nc1N,active: 50.3%
21,Cc1cccn2cc(CNC(=O)CC3CCCC3)nc12,inconclusive: 51.8%
22,CC(C)CCNC(=O)C1C2C=CC3(CN(Cc4ccccc4Cl)C(=O)C13)O2 (configuration not stated),inconclusive: 41.9%
23,Cc1noc(C)c1CSc1nc2cc(S(=O)(=O)N3CCOCC3)ccc2o1,inconclusive: 43.2%
24,COc1ccc(N(CC(=O)NCc2ccco2)S(C)(=O)=O)cc1,inactive: 2.65%
25,O=C(Nc1ccc(S(=O)(=O)N2CCc3ccccc3C2)cc1)C1CCCO1 (configuration not stated),inactive: -8.71%
26,C=CCOC(=O)C(C#N)c1nc2ccccc2nc1N1CCCC1 (configuration not stated),inconclusive: 42.8%
27,O=C(Nc1cccc(C(=O)N2CCCCCC2)c1)c1ccco1,inactive: -14.4%

# Quoted from the listing.
# O=C(Nc1ccc(S(=O)(=O)N2CCc3ccccc3C2)cc1)C1CCCO1 (configuration not stated) – activation: inactive: -8.71%
# CCOC(=O)CC(=O)CSc1nc(C)cc(C)c1C#N – activation: inactive: 8.92%
